± gives the standard deviation of the averaged measurements. The effect of the compound repeats well; differences between the knockouts mostly do not.
Tested on: MDA-MB-231
Assay: relative cell number vs DMSO control (72 h) (% of DMSO); higher = less growth inhibition (more cells)
Method: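 QMAP-Seq: a pool of 5 breast cancer cell lines (ZR-75-1, SKBR3, HCC-38, MDA-MB-231, BT-20), each carrying 12 doxycycline-inducible Cas9 sgRNA perturbations (11 knockouts plus non-targeting sgNT), was treated with compounds for 72 h at four 10-fold doses (10 nM-10 uM or 1 nM-1 uM range). Barcodes were amplified and sequenced, and cell number was interpolated from 293T spike-in standard curves. The result is expressed as % of the median of DMSO wells. Two biological replicates.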

FC(F)c1nc2ccccc2n1-c1nc(N2CCOCC2)nc(N2CCOCC2)n1 [ZSTK474]
Details | relative cell number
sgRNA knockout: sgATF3, 10 nM | 108 ± 34
sgRNA knockout: sgATF3, 100 nM | 82.52 ± 0.24
sgRNA knockout: sgATF3, 1000 nM | 81.6 ± 3.1
sgRNA knockout: sgATF3, 10000 nM | 59.4 ± 9.2
sgRNA knockout: sgATF4, 10 nM | 101 ± 78
sgRNA knockout: sgATF4, 100 nM | 120 ± 3.6
sgRNA knockout: sgATF4, 1000 nM | 81.2 ± 8.9
sgRNA knockout: sgATF4, 10000 nM | 66.8 ± 9
sgRNA knockout: sgATF6, 10 nM | 108 ± 13
sgRNA knockout: sgATF6, 100 nM | 115 ± 4
sgRNA knockout: sgATF6, 1000 nM | 81.9 ± 15
sgRNA knockout: sgATF6, 10000 nM | 76.4 ± 6.5
sgRNA knockout: sgATG7, 10 nM | 90.3 ± 12
sgRNA knockout: sgATG7, 100 nM | 99.39 ± 0.25
sgRNA knockout: sgATG7, 1000 nM | 81 ± 7.5
sgRNA knockout: sgATG7, 10000 nM | 75.2 ± 4.6
sgRNA knockout: sgERN1, 10 nM | 80.9 ± 8.8
sgRNA knockout: sgERN1, 100 nM | 115 ± 1.8
sgRNA knockout: sgERN1, 1000 nM | 88.2 ± 9.4
sgRNA knockout: sgERN1, 10000 nM | 63.4 ± 18
sgRNA knockout: sgHSF1, 10 nM | 94.4 ± 33
sgRNA knockout: sgHSF1, 100 nM | 90 ± 21
sgRNA knockout: sgHSF1, 1000 nM | 70 ± 21
sgRNA knockout: sgHSF1, 10000 nM | 67.6 ± 4.1
sgRNA knockout: sgHSF2, 10 nM | 82.8 ± 12
sgRNA knockout: sgHSF2, 100 nM | 111 ± 25
sgRNA knockout: sgHSF2, 1000 nM | 77.5 ± 8.7
sgRNA knockout: sgHSF2, 10000 nM | 62.4 ± 2.2
sgRNA knockout: sgKEAP1, 10 nM | 100 ± 15
sgRNA knockout: sgKEAP1, 100 nM | 122 ± 8.7
sgRNA knockout: sgKEAP1, 1000 nM | 96.9 ± 4.8
sgRNA knockout: sgKEAP1, 10000 nM | 61.2 ± 13
sgRNA knockout: sgNFE2L2, 10 nM | 92 ± 12
sgRNA knockout: sgNFE2L2, 100 nM | 96.9 ± 3.2
sgRNA knockout: sgNFE2L2, 1000 nM | 67.25 ± 0.17
sgRNA knockout: sgNFE2L2, 10000 nM | 62.5 ± 26
sgRNA knockout: sgSLC35F2, 10 nM | 71.3 ± 6
sgRNA knockout: sgSLC35F2, 100 nM | 78.2 ± 11
sgRNA knockout: sgSLC35F2, 1000 nM | 82.5 ± 20
sgRNA knockout: sgSLC35F2, 10000 nM | 67.7 ± 20
sgRNA knockout: sgXBP1, 10 nM | 112 ± 10
sgRNA knockout: sgXBP1, 100 nM | 115 ± 21
sgRNA knockout: sgXBP1, 1000 nM | 84.8 ± 23
sgRNA knockout: sgXBP1, 10000 nM | 58.8 ± 2.3
